In patent US9849101B2, “Method for enhancing amidohydrolase activity of fatty acid amide hydrolase” (Research Foundation of the City University of New York, priority 2013, dated 2017):
Some entries share one result that the patent states for a list of compounds.

Target: T1, rat FAAH (Rattus norvegicus, UniProt P97612)
T1 construct: made in house; host or cells: E. coli TOP10
T1 sequence (P97612 1-579): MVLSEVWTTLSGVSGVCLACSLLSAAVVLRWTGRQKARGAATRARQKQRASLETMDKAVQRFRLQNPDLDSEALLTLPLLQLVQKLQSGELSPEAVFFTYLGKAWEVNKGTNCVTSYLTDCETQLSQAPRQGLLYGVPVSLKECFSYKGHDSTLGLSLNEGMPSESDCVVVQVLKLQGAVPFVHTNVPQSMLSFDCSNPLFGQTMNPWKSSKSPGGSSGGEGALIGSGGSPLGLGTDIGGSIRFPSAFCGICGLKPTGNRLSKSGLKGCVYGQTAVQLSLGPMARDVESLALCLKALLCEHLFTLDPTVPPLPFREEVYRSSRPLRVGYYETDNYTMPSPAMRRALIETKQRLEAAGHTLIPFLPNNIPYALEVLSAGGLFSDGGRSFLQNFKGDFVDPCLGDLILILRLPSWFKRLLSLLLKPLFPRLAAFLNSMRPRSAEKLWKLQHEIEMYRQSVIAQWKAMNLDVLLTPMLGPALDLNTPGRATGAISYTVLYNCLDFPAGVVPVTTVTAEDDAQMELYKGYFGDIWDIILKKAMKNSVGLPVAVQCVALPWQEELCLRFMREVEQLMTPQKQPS
Test: NAE amidohydrolase assay on purified recombinant rat FAAH
Type: biochemical
Details: 100 μM compound; NAE 20:4

CCCCCCCCCCCCCCCc1cccc(OCC(=O)NCCO)c1 [PDP-EA, N-(2-hydroxyethyl)-2-(3-pentadecylphenoxy)acetamide]
increase of activity by a factor: ≤ 7±1.1
